These results are taken from PMC12839168.

The chains behind the UniProt entries cited, without tags or fusion partners.
UniProt Q8WYP5: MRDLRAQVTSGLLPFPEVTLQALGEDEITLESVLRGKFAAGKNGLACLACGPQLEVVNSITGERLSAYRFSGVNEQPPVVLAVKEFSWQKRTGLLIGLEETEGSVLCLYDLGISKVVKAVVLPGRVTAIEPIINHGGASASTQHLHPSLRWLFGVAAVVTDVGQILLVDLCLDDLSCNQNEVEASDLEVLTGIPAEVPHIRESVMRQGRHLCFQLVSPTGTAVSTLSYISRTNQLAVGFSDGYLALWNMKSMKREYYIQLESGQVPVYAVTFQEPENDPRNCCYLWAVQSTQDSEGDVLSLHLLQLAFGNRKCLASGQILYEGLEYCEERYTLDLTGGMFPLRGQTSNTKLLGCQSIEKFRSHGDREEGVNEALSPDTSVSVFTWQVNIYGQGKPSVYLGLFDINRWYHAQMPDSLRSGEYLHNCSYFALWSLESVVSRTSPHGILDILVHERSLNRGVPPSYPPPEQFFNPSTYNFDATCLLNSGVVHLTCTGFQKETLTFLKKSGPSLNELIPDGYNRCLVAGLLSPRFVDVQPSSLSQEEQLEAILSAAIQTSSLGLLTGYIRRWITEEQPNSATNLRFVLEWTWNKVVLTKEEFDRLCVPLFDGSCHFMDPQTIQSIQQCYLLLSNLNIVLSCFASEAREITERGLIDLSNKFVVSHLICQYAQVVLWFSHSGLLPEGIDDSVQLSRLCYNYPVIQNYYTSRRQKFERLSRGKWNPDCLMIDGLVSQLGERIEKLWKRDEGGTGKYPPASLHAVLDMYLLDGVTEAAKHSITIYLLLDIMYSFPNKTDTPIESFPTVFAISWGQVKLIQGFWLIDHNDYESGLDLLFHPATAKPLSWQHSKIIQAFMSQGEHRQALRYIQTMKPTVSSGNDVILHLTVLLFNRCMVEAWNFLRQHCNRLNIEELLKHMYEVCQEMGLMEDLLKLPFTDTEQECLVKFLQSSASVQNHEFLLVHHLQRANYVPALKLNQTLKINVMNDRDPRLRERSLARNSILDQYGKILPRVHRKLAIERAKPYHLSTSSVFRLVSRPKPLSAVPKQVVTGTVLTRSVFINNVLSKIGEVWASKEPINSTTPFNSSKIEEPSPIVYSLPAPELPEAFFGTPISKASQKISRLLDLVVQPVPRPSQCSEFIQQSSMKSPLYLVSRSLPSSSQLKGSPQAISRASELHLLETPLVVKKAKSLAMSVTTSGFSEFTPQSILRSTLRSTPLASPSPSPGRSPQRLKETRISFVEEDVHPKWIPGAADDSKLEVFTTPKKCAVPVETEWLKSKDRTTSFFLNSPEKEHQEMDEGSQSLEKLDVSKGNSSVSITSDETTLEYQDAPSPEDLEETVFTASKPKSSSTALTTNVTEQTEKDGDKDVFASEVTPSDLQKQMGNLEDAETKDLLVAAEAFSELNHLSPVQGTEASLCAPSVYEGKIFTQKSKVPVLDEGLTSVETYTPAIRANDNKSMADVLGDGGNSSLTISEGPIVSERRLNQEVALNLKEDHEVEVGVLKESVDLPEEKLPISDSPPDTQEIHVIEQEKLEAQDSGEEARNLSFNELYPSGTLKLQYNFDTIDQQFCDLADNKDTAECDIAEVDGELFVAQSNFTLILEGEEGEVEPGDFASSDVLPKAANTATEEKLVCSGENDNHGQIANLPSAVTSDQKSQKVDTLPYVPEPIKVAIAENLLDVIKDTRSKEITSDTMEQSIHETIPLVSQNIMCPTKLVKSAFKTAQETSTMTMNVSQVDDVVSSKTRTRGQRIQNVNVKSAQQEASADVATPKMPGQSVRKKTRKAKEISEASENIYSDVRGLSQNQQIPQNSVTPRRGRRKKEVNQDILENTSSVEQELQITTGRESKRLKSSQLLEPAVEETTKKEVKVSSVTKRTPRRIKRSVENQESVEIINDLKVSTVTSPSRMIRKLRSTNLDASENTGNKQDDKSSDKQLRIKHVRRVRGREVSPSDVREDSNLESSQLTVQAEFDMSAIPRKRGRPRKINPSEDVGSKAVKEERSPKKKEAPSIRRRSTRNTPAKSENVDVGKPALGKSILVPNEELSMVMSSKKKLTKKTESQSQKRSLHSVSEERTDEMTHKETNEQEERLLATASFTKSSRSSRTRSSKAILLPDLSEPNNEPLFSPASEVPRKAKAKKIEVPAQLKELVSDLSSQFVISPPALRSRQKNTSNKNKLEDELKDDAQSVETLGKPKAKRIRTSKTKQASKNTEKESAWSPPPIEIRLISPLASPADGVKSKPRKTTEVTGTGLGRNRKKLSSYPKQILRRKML
UniProt Q92769: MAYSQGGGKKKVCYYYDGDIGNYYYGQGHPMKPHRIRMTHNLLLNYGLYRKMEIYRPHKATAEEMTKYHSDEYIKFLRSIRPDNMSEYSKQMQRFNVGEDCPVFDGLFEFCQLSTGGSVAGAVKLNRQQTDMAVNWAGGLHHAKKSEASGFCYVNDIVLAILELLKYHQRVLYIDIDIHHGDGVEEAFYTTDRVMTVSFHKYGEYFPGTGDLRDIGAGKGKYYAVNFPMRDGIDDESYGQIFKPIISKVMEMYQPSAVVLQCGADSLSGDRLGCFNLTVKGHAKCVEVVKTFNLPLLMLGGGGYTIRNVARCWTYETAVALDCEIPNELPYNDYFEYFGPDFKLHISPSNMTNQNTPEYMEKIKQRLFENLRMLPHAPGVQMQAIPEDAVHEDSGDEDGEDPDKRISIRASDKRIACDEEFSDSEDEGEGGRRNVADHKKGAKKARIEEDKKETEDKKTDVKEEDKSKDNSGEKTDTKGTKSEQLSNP

What all share (assay): affinity purification with mass spectrometry; 0.5 mg precleared cell lysate incubated overnight at 4 °C with anti-p73 antibody (ER-15), complexes captured on preblocked Protein G Sepharose beads 1.5 h at 4 °C, washed, eluted at 95 °C for 10 min; LC-MS/MS (settings in ref. 5)
Assay [1] concerns the target DNp73β (ΔEx2/3p73β) (UniProt O15350).
The next assay has as its target T1, TAp73α (UniProt O15350).
T1 sequence: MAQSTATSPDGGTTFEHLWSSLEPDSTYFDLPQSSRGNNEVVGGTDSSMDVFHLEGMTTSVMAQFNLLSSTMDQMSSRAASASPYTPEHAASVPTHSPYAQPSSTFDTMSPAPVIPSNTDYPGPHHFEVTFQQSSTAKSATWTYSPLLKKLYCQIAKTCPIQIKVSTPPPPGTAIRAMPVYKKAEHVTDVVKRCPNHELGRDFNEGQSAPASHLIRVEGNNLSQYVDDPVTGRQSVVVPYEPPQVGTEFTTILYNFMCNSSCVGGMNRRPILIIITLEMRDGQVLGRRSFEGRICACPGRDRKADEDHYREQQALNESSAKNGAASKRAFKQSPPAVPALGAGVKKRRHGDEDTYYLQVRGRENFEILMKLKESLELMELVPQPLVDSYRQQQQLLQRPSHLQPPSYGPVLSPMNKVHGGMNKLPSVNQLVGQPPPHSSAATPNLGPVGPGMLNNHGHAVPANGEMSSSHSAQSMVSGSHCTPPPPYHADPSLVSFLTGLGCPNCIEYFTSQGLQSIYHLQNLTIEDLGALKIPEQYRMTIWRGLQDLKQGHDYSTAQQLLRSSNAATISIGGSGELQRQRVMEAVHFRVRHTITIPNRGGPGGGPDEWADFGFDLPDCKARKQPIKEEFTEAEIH

Assay [2] has as its target DNp73β (ΔEx2/3p73β) (UniProt O15350). This is another data set of the same source.

Like-named read-outs stand apart in the source and are kept apart here. No constants are given. Whether binding was seen depends on the method and setting. Binding seen in cells or lysates may run through a third protein. These calls come from enrichment with a bait or labelling near it, and not all partners need be listed. For some assays here: A no says only that the protein was not detected with the bait.

Consider AHCTF1 (from UniProt Q8WYP5 1-2266), for which the binding result in the assay with DNp73β (ΔEx2/3p73β) [1] is “binds”.

Regarding HDAC2 (from UniProt Q92769 1-488), the binding result was “no binding” with DNp73β (ΔEx2/3p73β) [1] and “binds” in the assay with TAp73α.

B1: HMGB3 (protein, UniProt O15347 1-200)
chain: MAKGDPKKPKGKMSAYAFFVQTCREEHKKKNPEVPVNFAEFSKKCSERWKTMSGKEKSKFDEMAKADKVRYDREMKDYGPAKGGKKKKDPNAPKRPPSGFFLFCSEFRPKIKSTNPGISIGDVAKKLGEMWNNLNDSEKQPYITKAAKLKEKYEKDVADYKSKGKFDGAKGPAKVARKKVEEEDEEEEEEEEEEEEEEDE
In the case of B1, the binding entry with DNp73β (ΔEx2/3p73β) [2] is given as “binds”.

B2: PATZ1 (protein, UniProt Q9HBE1 1-687)
chain: MERVNDASCGPSGCYTYQVSRHSTEMLHNLNQQRKNGGRFCDVLLRVGDESFPAHRAVLAACSEYFESVFSAQLGDGGAADGGPADVGGATAAPGGGAGGSRELEMHTISSKVFGDILDFAYTSRIVVRLESFPELMTAAKFLLMRSVIEICQEVIKQSNVQILVPPARADIMLFRPPGTSDLGFPLDMTNGAALAANSNGIAGSMQPEEEAARAAGAAIAGQASLPVLPGVDRLPMVAGPLSPQLLTSPFPSVASSAPPLTGKRGRGRPRKANLLDSMFGSPGGLREAGILPCGLCGKVFTDANRLRQHEAQHGVTSLQLGYIDLPPPRLGENGLPISEDPDGPRKRSRTRKQVACEICGKIFRDVYHLNRHKLSHSGEKPYSCPVCGLRFKRKDRMSYHVRSHDGSVGKPYICQSCGKGFSRPDHLNGHIKQVHTSERPHKCQTCNASFATRDRLRSHLACHEDKVPCQVCGKYLRAAYMADHLKKHSEGPSNFCSICNRGFSSASYLKVHVKTHHGVPLPQVSRHQEPILNGGAAFHCARTYGNKEGQKCSHQDPIESSDSYGDLSDASDLKTPEKQSANGSFSCDMAVPKNKMESDGEKKYPCPECGSFFRSKSYLNKHIQKVHVRALGGPLGDLGPALGSPFSPQQNMSLLESFGFQIVQSAFASSLVDPEVDQQPMGPEGK
For the molecule B2, the binding result with DNp73β (ΔEx2/3p73β) [2] is listed as “binds”.
